Data as given in PubChem BioAssay AID1224827 (NIAID, 2016).

Assay: 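Confirm genes whose knock-down changes LPS-driven TNF promoter activity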 (follow-up of hits)
System: RAW264.7 G9 mouse macrophage reporter clone
Knock-down reagent: single siRNA against mouse genes, 100 nM siRNA
Timing: siRNA for 2 days, then LPS about 16 h
Treatment: bacterial lipopolysaccharide (LPS), 10 ng/ml, cells fixed after overnight (about 16 h) stimulation
Detection: 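TNF promoter reporter red fluorescence in nuclei, background subtracted, normalised per plate and to non-targeting control siRNA, as z-scores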
Direction: TNF reporter z-score, mean and TNF reporter z-score: higher = stronger Tnf promoter reporter signal; gene median z, three same-vendor siRNAs: higher = stronger Tnf reporter signal for the gene
Active means: 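An siRNA is called active when its mean z-score over replicates is at least +2 or at most -2; control wells get no call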
The deposit covers about 3,800 reagents; shown is a random part of them. About 2,200 of them (57%) were called active. 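Active means a strong reporter change in either direction; calls are per siRNA, not per gene; qiagen siRNAs gave weaker effects.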 Unmarked entries are inactive. The numbers tell different reagents against one gene apart.

gene,reagent,"TNF reporter z-score, mean","gene median z, three same-vendor siRNAs","TNF reporter z-score, repeat 1","TNF reporter z-score, repeat 2"
Or52u1,1,1.14,-0.586,0.232,2.05
Or52u1,2,0.751,-0.586,-1.4,2.91
Or52u1,3,-5.17 (active),-0.586,-4.57,-5.76
Or52u1,4,3.37 (active),-0.758,5.65,1.09
Or52u1,5,-0.871,-0.758,-0.487,-1.25
Or52u1,6,-1.53,-0.758,-2.04,-1.03
Snrnp40,1,-2.22 (active),-3.83,-2.03,-2.41
Snrnp40,2,-4.22 (active),-3.83,-3.55,-4.89
Snrnp40,3,-4.58 (active),-3.83,-4.1,-5.05
Snrnp40,4,4.09 (active),0.848,7.1,1.09
Snrnp40,5,3.38 (active),0.848,6.15,0.607
Snrnp40,6,-4.5 (active),0.848,-6.49,-2.51
Actr3,1,-1.54,-3.65,-2.37,-0.697
Actr3,2,-3.89 (active),-3.65,-4.08,-3.69
Actr3,3,-3.97 (active),-3.65,-3.62,-4.33
Actr3,4,3.5 (active),1.19,5.06,1.95
Actr3,5,1.29,1.19,2.38,0.207
Actr3,6,-0.171,1.19,0.439,-0.782
Or2y1g,1,3.51 (active),-0.786,1.97,5.05
Or2y1g,2,-1.97,-0.786,-0.294,-3.65
Or2y1g,3,-2.07 (active),-0.786,-1.28,-2.87
Or2y1g,4,-0.505,-1.09,-0.322,-0.687
Or2y1g,5,-0.53,-1.09,0.44,-1.5
Or2y1g,6,-2.51 (active),-1.09,-1.9,-3.12
Acot9,1,-0.553,-2.79,-1.09,-0.0205
Acot9,2,-2.79 (active),-2.79,-3.02,-2.56
Acot9,3,-4.67 (active),-2.79,-5.08,-4.25
Acot9,4,3.28 (active),-2.18,5.36,1.19
Acot9,5,-2.18 (active),-2.18,-1.83,-2.52
Acot9,6,-3.5 (active),-2.18,-4.2,-2.81
Itga10,1,9.77 (active),0.0535,16.7,2.84
Itga10,2,0.0535,0.0535,0.021,0.086
Itga10,3,-1.75,0.0535,-1.79,-1.72
Palm,1,0.914,-1.9,-0.772,2.6
Palm,2,-1.41,-1.9,-3.03,0.209
Palm,3,-5.24 (active),-1.9,-6.04,-4.43
Palm,4,2.87 (active),0.418,4.95,0.8
Palm,5,0.926,0.418,3.53,-1.68
Palm,6,-0.251,0.418,0.0354,-0.537
Tigar,1,1.02,-3.38,0.141,1.9
Tigar,2,-3.53 (active),-3.38,-3.61,-3.45
Tigar,3,-3.81 (active),-3.38,-4.32,-3.3
Tigar,4,2.93 (active),1.06,5.83,0.0222
Tigar,5,1.6,1.06,4.03,-0.824
Tigar,6,0.956,1.06,2.11,-0.197
Rps29,1,-1.89,-3.25,-1.68,-2.09
Rps29,2,-3.25 (active),-3.25,-3.42,-3.09
Rps29,3,-4.99 (active),-3.25,-5.42,-4.55
Rps29,4,-0.727,-2.48,0.773,-2.23
Rps29,5,-2.9 (active),-2.48,-2.43,-3.38
Rps29,6,-3.03 (active),-2.48,-2.52,-3.54
Kmt2a,1,-0.396,-1.45,0.482,-1.27
Kmt2a,2,-1.69,-1.45,-2.22,-1.16
Kmt2a,3,-2.6 (active),-1.45,-1.62,-3.58
Nav1,1,5.24 (active),-0.448,0.939,9.54
Nav1,2,-1.34,-0.448,0.0454,-2.73
Nav1,3,-1.61,-0.448,-0.942,-2.27
Nav1,4,2.27 (active),-0.27,4.38,0.165
Nav1,5,0.0933,-0.27,0.891,-0.705
Nav1,6,-1.37,-0.27,-0.712,-2.04

Entries listed so far whose target name begins with I or i (3):
gene,reagent,"TNF reporter z-score, mean","gene median z, three same-vendor siRNAs","TNF reporter z-score, repeat 1","TNF reporter z-score, repeat 2"
Itga10,1,9.77 (active),0.0535,16.7,2.84
Itga10,2,0.0535,0.0535,0.021,0.086
Itga10,3,-1.75,0.0535,-1.79,-1.72
